Assay results as given in the supplement of paper PMC10338343.
± gives the standard deviation. The list shows a part of the results, in another mix than the full data. The uncertainty is large for many entries.

tested on: MILI (PIWIL2) piRISC loaded with piRNA #2 (26 nt); assay: pre-steady-state target cleavage rate (min^-1); MIWI and MILI are mouse PIWI proteins and EfPiwi is from a freshwater sponge; tags in brackets are library labels; higher = faster piRNA-guided slicing of the target; details: guide: piRNA #2 5'p-UUAGGUAACCCAGUAGAUCCAGAGGA; auxiliary factor: 500 nM mouse GTSF1
Outline: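 In HEPES–potassium acetate buffer at 33 °C, […] transcribed, DNA-blocked target RNA library was mixed with 1 nM active affinity-purified piRISC carrying one synthetic guide, with or without 500 nM GTSF1 partner protein, for 0–8 or 0–960 min. Uncleaved targets were sequenced and normalised to depth and to weakly complementary targets; three trials were pooled and k3 was capped at 0.0001 min^-1. The pre-steady-state cleavage rate followed from a burst-and-steady-state fit.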
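Further: 1 nM active piRISC with 0.1 nM target library at 33 °C single turnover.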

Sequence | pre-steady-state target cleavage rate
CUUAAGGAGACCAUCUACUGGGUUUACCUAA | 0.00108 ± 0.0063
CUUAAGGAGACCAUCUACAGGCUUACCUAA | 0.00183 ± 0.0075
CUUAAGGAGACGAUGUACUGGGUUUCCUAA | 0.000456 ± 0.018
CUUAAGGUCAGGAUCUACUGGGUUACCUUA | 0.0166 ± 0.0094
CUUAAGGAGACCUUCUCCUGGGUUACCUAA | 0.000629 ± 0.016
CUUAAGGAGAGCAUCUAGUGGGUUACCUAA | 0.00422 ± 0.0049
CUUAAGGAGACCUAGUACUCGGUUACGUAA | 0.000222 ± 0.031
CUUAAGGAGACGAUCUACUGGCUUACCUUA | 0.000471 ± 0.017
CUUAAGGACUGGAUCAUCUGGGUUACCUAA | 0.00673 ± 0.01
CUUAAGGAGUGGUUCUACUGGCUUACCUAA | 0.000615 ± 0.022
CUUAAGGAGACCACUCUACUGGGUUACCUAA | 0.000919 ± 0.01
CUUAAGGAGUGGAUUACUGGGUUACCUAA | 0.000954 ± 0.015
CUUAAGGAGACCUUCUACAGGCUUACCUAA | 0.000521 ± 0.014
CUUAAGGAGACCAUCUACUGGGUUACCAAA | 0.000732 ± 0.01
CUUAAGGAGACCAUCUACUAGGUUACCUAA | 0.00108 ± 0.0071
CUUAAGGACUGGAUCUACUGGGUUACCCUAA | 0.00158 ± 0.018
CUUAAGGAGACGAUCUACUGGGUUAGCUAA | 0.00056 ± 0.0092
CUUAAGGAGACGAUCUUGAGGGUUACCUAA | 0.000764 ± 0.0099
CUUAAGGAGACCAUCUACAGGGUUACCUAA | 0.00227 ± 0.0047
CUUAAGGAGACCUACUACUGGGUUGACCUAA | 0.000282 ± 0.039
CUUAACCUCUGGAUCUACUCGGUUACCAAA | 0.000971 ± 0.014
CUUAAGGAGACGAUCAACUGGGUUACCUAA | 0.00125 ± 0.0055
CUUAAGGACUCGAUCUACUGGGUAACCUAA | 0.00424 ± 0.0077

Sequence | pre-steady-state target cleavage rate
CUUAAGGAGACCUACUCCUGGGUUACCUAA | 0.000934 ± 0.015
CUUAAGCUCUGGAUCUACUGGGUAUGGAUA [g8:g24:cont:t1A] | 0.000397 ± 0.029
CUUAAGGUCUGGAUCUACUCGGUUACCUUA | 0.000557 ± 0.021
CUUAUCCUCUGGAUCUACACCCAAUGGAUA [g13:g26:cont:t1A] | 0.000178 ± 0.033
CUUAAGGUCUGGAUCUACUGGCUUUCCUAA | 0.000261 ± 0.024
CUUAAGGAGUGCAUGUACUGGGUUACCUAA | 0.000307 ± 0.03
CUUAAGCACUGCAUCUACUGGGUUACCUAA | 0.0725 ± 0.015
CUUAAGGAGACGAUCAUACUGGGUUACCUAA | 0.000623 ± 0.014
CUUAAGGAGACCUUCAACUGCGUUACCUAA | 0.000233 ± 0.038
CUUAAGGAGAGGAUCUACUGGGUUACACUAA | 0.00101 ± 0.013
CUUAAGGAGACCUUCUAACUGGGUUACCUAA | 0.0005 ± 0.013
CUUAACCUCUGGAUCUACUGGUGUUACCUAA | 0.0013 ± 0.0068
CUUAAGGAGACCAUCUGACUGGGUUACCUAA | 0.000219 ± 0.027
CUUAAGGACUGGAUCUACUGGGUCACCUAA | 0.00106 ± 0.026
CUUAUCCUCAGGAUCUACUCGGUUACCUAA | 0.00098 ± 0.018
CUUAUCCUCUGGAUCAACUCGGUUACCUAA | 0.000953 ± 0.013
CUUAACCUCUGGAUCUACUCGGUUACCUAA | 0.00359 ± 0.005
CUUAAGGAGACGUUCUACUCGGUUACCUAA | 0.000176 ± 0.039
CUUAAGGAGUGCAUCUACUGGGUAACCUAA | 0.00169 ± 0.011
CUUAAGCUCUGCAUCUACUGGCUUACCUAA | 0.00185 ± 0.0066
CUUAACCUCUGGAUCUACUGGCGUUACCUAA | 0.0016 ± 0.0048
CUUAAGGACUGGAUCAACUGGGUAACCUAA | 0.000731 ± 0.024
CUUAAGGAGACCUAGAUGAGGGAUUACCUAA | 0.000105 ± 0.061

Sequence | pre-steady-state target cleavage rate
CUUAAGGAGAGGAACUACUGGGUUACCUUA | 0.00152 ± 0.009
CUUAACCUCUGCAUCUACAGGGUUACCUAA | 0.0773 ± 0.014
CUUAACCUCAGGAUCUACUCGGUUACCUAA | 0.00154 ± 0.012
CUUAAGGACUGGAUCUACUGGGUUACGUUA | 0.00567 ± 0.0069
CUUAAGGUCUGGAUCUCACUGGGUUACCUAA | 0.000441 ± 0.014
CUUAAGGAGACCAUCUACUGGGUUACCUAC [g2:g18:cont:t1C] | 0.0011 ± 0.013
CUUAAGGUCUGGAUGUACUGGGAUACCUAA | 0.0141 ± 0.01
CUUAAGGAGACCUACUACUGGGUAUACCUAA | 0.0005 ± 0.012
CUUAAGGAGUGGUUCUACUCGGUUACCUAA | 0.000548 ± 0.021
CUUAAGGAGACGAACUACAGGGUUACCUAA | 0.00116 ± 0.0077
CUUAAGGAGACCAUCUACUUGGGUUACCUAA | 0.000776 ± 0.011
CUUAAGGAGACCUUCUACUGGGUCUACCUAA | 0.000497 ± 0.021
CUUAAGGAGUGGAACUACUGGGAUACCUAA | 0.000647 ± 0.017
CUUAAGGAGACCUUCUUACUGGGUUACCUAA | 0.000161 ± 0.021
CUUAAGGACUGGAUCUACUGGAUUACCUAA | 0.003 ± 0.011
CUUAAGGACUGGAACUACUGGGUUACGUAA | 0.00202 ± 0.014
CUUAAGCUCUGGAUCUACUGGCUUACCAAA | 0.000391 ± 0.027
CUUAAGGAGACCUAGUACUGGGUUACUAA | 0.000143 ± 0.036
CUUAAGGAGAGGAUCUACUGGGUUACUAA | 0.00033 ± 0.03
CUUAAGGUCUGGAUCUACAGGGUUAGCUAA | 0.0446 ± 0.012
CUUAAGGAGACCAUCUUCAGGGUUACCUAA | 0.00174 ± 0.0052
CUUAAGGACUGAGAUCUACUGGGUUACCUAA | 0.0114 ± 0.014
CUUAUCCUCUGGAUCUACUGGCUAACCUAA | 0.000544 ± 0.019

Sequence | pre-steady-state target cleavage rate
CUUAUCCUCUCCUUCUACUGGGUUACCUAA | 0.106 ± 0.023
CUUAAGGAGACGAUCUACUAGGUUACCUAA | 0.0037 ± 0.0043
CUUAUACUCUGGAUCUACUGGGUUACCUAA | 0.0651 ± 0.014
CUUAAGGAGUGGAUCUACUGGGUUACCCAA | 0.0032 ± 0.0046
CUUAAGCUCUGGAUCUACUGGAGUUACCUAA | 0.00227 ± 0.006
CUUAUCCUCUGGAACUACUGGGUUACGUAA | 0.197 ± 0.068
CUUAAGGAGAGGAUCUACUGGGUUACGUUA | 0.000696 ± 0.018
CUUAAGGAGACCUACUACUGGUUACCUAA | 0.000237 ± 0.019
CUUAAGGAGGGGAUCUACUGGGUUACCUAA | 0.0293 ± 0.022
CUUAAGGAGACCUUCUACUGGGUUGACCUAA | 0.000778 ± 0.014
CUUAAGGAGACGAACUACUGGGUUACCUAA | 0.000127 ± 0.042
CUUAACCUCAGGAUCUACUGGCUUACCUAA | 0.0013 ± 0.01
CUUAAGGAGACCUAGAUCAGGGUUACCUAA | 0.000383 ± 0.013
CUUAAGCUCUGGAUGUACUCGGUUACCUAA | 0.00165 ± 0.0054
CUUAAGCUCUGGAUCUACUGGUUACCUAA | 0.00171 ± 0.0047
CUUAAGGACUGGAUCUACUGGGUUACCAAA | 0.00249 ± 0.0096
CUUAUCCUCUGGAUGUACUCGGUUACCUAA | 0.00156 ± 0.0072
CUUAAGGAGUGGAUCUAGUGGGUUAGCUAA | 0.000372 ± 0.025
CUUAAGGAGACCUAGAUGACGGUUUACCUAA | 0.00039 ± 0.013
CUUAAGGAGUGGAUCUACUGCGUUACGUAA | 0.000368 ± 0.026
CUUAAGGAGAGGAUCUACUGGGUGACCUAA | 0.00141 ± 0.0078
CUUAUCCUCUGGAACUACUGGGUUACCUAA | 0.188 ± 0.042

Rewritten with tabs: entries from further up
Sequence	pre-steady-state target cleavage rate
CUUAAGGAGAGGAUCUACUGGGUUACGUUA	0.000696 ± 0.018
CUUAAGGAGACCUACUACUGGUUACCUAA	0.000237 ± 0.019
CUUAAGGAGGGGAUCUACUGGGUUACCUAA	0.0293 ± 0.022
CUUAAGGAGACCUUCUACUGGGUUGACCUAA	0.000778 ± 0.014
